Some entries share one result that the patent states for a list of compounds.
Key:
[1] = test system: Plasmopara viticola; assay: Plasmopara test (grapevine)/protective; format: in vivo; conditions: protective, active compound concentration 100 ppm, evaluation 6 days after inoculation
[2] = test system: Phytophthora infestans; format: in vivo; conditions: tomato plants, protective, active compound concentration 500 ppm, evaluation 7 days after inoculation

Q: For `O=C(OC1CCCCC1)c1csc(C2CCN(C(=O)Cc3cc(C(F)(F)F)ccc3C(F)(F)F)CC2)n1` [Example 16], which efficacy [1] is on record?
A: Its efficacy is ≥ 70%.

Q: What about the efficacy [2] of the same compound?
A: Its efficacy is ≥ 70%.

Q: `O=C(OC1CCCCC1)c1csc(C2CCN(C(=O)Cc3cc(Cl)ccc3Cl)CC2)n1` [Example 14] was tested. Which efficacy [1] did it give?
A: The efficacy was ≥ 70%.

Q: What about the efficacy [2] of the same compound?
A: Its efficacy is ≥ 70%.

Q: How did the efficacy [1] turn out when `O=C(OC1CCCCC1)c1csc(C2CCN(C(=O)Cc3cc(Br)ccc3Br)CC2)n1` [Example 15, Cyclohexyl 2-{1-[(2,5-dibromophenyl)acetyl]piperidin-4-yl}-1,3-thiazole-4-carboxylate] was run?
A: The efficacy was ≥ 70%.

Q: What about the efficacy [2] of the same compound?
A: Its efficacy is ≥ 70%.

Q: What does the source list for `Cc1cc(C(F)(F)F)nn1CC(=O)N1CCN(c2nc(C(=O)OCc3ccccc3Cl)cs2)CC1` [Example 48]?
A: efficacy [1]: ≥ 70%; efficacy [2]: ≥ 70%

Q: For `Cc1ccc(I)cc1CC(=O)N1CCC(c2nc(C(=O)OC3CCCCC3)cs2)CC1` [Example 19], which efficacy [1] is on record?
A: Its efficacy is ≥ 70%.

Q: What about the efficacy [2] of the same compound?
A: The efficacy was ≥ 70%.

Q: Which results are given for `Cc1cc(C(F)(F)F)nn1CC(=O)N1CCN(c2nc(C(=O)OC3Cc4ccccc4C3)cs2)CC1` [Example 41]?
A: efficacy [1]: ≥ 70%; efficacy [2]: ≥ 70%

Q: Which results are given for `O=C(OC1CCCCC1)c1csc(C2CCN(C(=O)Cc3cc(C(F)(F)F)ccc3Br)CC2)n1` [Example 13]?
A: efficacy [1]: ≥ 70%; efficacy [2]: ≥ 70%

Q: Which efficacy [1] does the source give for `O=C(OC1CCCCC1)c1csc(C2CCN(C(=O)Cc3nc(C(F)(F)F)ccc3Cl)CC2)n1` [Example 52] here?
A: Its efficacy is ≥ 70%.

Q: And the efficacy [2]?
A: Its efficacy is ≥ 70%.

Q: Which efficacy [1] does the source give for `Cc1cc(C(F)(F)F)nn1CC(=O)N1CCN(c2nc(C(=O)OC3CCCc4ccccc43)cs2)CC1` (stereo not shown) [Example 43] here?
A: The efficacy was ≥ 70%.

Q: And the efficacy [2]?
A: The efficacy was ≥ 70%.

Q: `Cc1ccc(F)c(NC(=O)N2CCC(c3nc(C(=O)OC4CCCCC4)cs3)CC2)c1` [Example 64] was tested. Which efficacy [1] did it give?
A: Its efficacy is ≥ 70%.

Q: And the efficacy [2]?
A: Its efficacy is ≥ 70%.

Q: Which results are given for `Cc1ccc(Cl)c(NC(=O)N2CCC(c3nc(C(=O)OC4CCCCC4)cs3)CC2)c1` [Example 62]?
A: efficacy [1]: ≥ 70%; efficacy [2]: ≥ 70%

Q: For `Cc1nc(CC(=O)N2CCC(c3nc(C(=O)Oc4cccc5ccccc45)cs3)CC2)c(C)s1` [Example 26], which efficacy [1] is on record?
A: The efficacy was ≥ 70%.

Q: And the efficacy [2]?
A: Its efficacy is ≥ 70%.

Q: For `Cc1cc(C(F)(F)F)nn1CC(=O)N1CCN(c2nc(C(=O)OC3CCCCC3)cs2)CC1` [Example 46, Cyclohexyl 2-(4-{[5-methyl-3-(trifluoromethyl)-1H-pyrazol-1-yl]acetyl}piperazin-1-yl)-1,3-thiazole-4-carboxylate], which efficacy [1] is on record?
A: Its efficacy is ≥ 70%.

Q: And the efficacy [2]?
A: The efficacy was ≥ 70%.

Q: How did the efficacy [1] turn out when `COc1ccc(C)cc1NC(=O)N1CCC(c2nc(C(=O)OC3CCCCC3)cs2)CC1` [Example 71] was run?
A: Its efficacy is ≥ 70%.

Q: And the efficacy [2]?
A: Its efficacy is ≥ 70%.

Q: With `Cc1ccc(C)c(NC(=O)N2CCC(c3nc(C(=O)OC4CCCCC4)cs3)CC2)c1` [Example 59, Cyclohexyl 2-{1-[(2,5-dimethylphenyl)carbamoyl]piperidin-4-yl}-1,3-thiazole-4-carboxylate] as the compound, how does the efficacy [1] read?
A: Its efficacy is ≥ 70%.

Q: And the efficacy [2]?
A: Its efficacy is ≥ 70%.

Q: With `Cc1cc(C(F)(F)F)nn1CC(=O)N1CCN(c2nc(C(=O)OC3CCc4ccccc4C3)cs2)CC1` (stereo not shown) [Example 42] as the compound, how does the efficacy [1] read?
A: The efficacy was ≥ 70%.

Q: And the efficacy [2]?
A: The efficacy was ≥ 70%.

Q: With `Cc1cc(C(F)(F)F)nn1CC(=O)N1CCN(c2nc(C(=O)OCc3ccc(F)cc3F)cs2)CC1` [Example 53] as the compound, how does the efficacy [1] read?
A: Its efficacy is ≥ 70%.

Q: What about the efficacy [2] of the same compound?
A: Its efficacy is ≥ 70%.

From patent US8501781B2 (priority 2009, dated 2013)
